Biological target: T1, MATE1 (Homo sapiens, UniProt Q96FL8)
T1 sequence (Q96FL8 1-570): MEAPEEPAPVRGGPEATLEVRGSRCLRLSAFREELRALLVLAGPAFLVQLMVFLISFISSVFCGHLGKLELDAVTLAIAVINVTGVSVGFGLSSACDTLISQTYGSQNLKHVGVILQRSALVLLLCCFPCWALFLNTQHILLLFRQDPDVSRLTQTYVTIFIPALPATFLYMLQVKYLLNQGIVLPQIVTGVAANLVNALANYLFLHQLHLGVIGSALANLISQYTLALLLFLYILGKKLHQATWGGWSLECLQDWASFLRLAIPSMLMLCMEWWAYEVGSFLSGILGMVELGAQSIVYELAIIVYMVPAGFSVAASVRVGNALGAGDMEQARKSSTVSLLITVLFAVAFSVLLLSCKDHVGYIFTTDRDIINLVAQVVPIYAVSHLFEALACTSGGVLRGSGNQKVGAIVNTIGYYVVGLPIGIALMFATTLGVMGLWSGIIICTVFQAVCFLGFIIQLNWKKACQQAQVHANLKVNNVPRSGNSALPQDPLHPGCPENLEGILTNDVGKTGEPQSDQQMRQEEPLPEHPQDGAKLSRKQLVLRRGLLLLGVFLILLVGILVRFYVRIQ
Assay: [14C]TEA uptake in HEK293 cells overexpressing human MATE1
Conditions: HEK293 cells overexpressing human MATE1, pH 7.4, probe [14C]TEA (tetraethylammonium), 2 µM
Description: Uptake experiments in HEK293 cells overexpressing mouse (m) and human (h) OCT2 or MATE1 were performed with radiolabeled tetraethylammonium (TEA) as the model substrate, using standard methods in the presence or absence of TKIs. The cell culture and uptake conditions for cells expressing mMATE1 or hMATE1 were described previously. […] Since the inhibitory potential of various xenobiotics against OCT2 and MATE1 is dependent on preincubation with perpetrator drugs, a 15-min preincubation period with the TKIs was employed unless stated otherwise. All results were normalized to uptake values in cells transfected with an empty vector or DMSO-treated groups.
MATE1-overexpressed cells were pre-incubated with transport media containing 30 mM ammonium chloride for 20 min at 37 °C following previously published protocol (pH 7.4 for hMATE1 [17, 18, 19] and pH 8.4 for mMATE1 [20, 21]) to ensure interactions can be evaluated between outward-facing MATE1 and substrate uptake before adding inhibitors. Then, preincubation media was removed and cells were incubated with transport media (NH4Cl free) containing radiolabeled compounds. […] The uptake of TEA and metformin was measured by liquid scintillation counting, as described previously. […] After sonication, total platinum levels were determined by flameless atomic absorption spectrometry.

inhibition at 10 µM: 97%
Compound: COc1cc(OC)cc(N(CCNC(C)C)c2ccc3ncc(-c4cnn(C)c4)nc3c2)c1 [Erdafitinib]

— paper PMC8707461, “In Vitro and In Vivo Inhibition of MATE1 by Tyrosine Kinase Inhibitors” (Pharmaceutics, 2021)
